Laboratory results: paper PMC6614419
Where two headings read alike, the source gives them in different places. These are yes or no findings as the source states them, for the method shown. In cells and extracts the contact can be indirect. Some entries that bind do so weakly or less than the wild type.

Protein sequences, listed by entry. Tags and fused reporters are not part of them.
UniProt Q9QZL0: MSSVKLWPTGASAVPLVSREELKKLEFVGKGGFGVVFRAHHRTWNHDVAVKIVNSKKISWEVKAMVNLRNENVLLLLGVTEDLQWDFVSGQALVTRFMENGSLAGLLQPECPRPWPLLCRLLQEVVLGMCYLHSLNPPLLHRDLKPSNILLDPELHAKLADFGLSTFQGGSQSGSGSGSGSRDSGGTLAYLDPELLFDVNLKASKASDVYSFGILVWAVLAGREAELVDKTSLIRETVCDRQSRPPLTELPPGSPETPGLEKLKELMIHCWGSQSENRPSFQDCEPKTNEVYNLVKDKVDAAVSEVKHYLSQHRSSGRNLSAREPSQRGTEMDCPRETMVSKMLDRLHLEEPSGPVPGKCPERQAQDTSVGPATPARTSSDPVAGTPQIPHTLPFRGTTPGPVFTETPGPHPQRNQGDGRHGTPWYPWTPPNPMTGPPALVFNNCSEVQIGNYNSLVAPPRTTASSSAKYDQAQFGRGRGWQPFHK
UniProt Q9Y572: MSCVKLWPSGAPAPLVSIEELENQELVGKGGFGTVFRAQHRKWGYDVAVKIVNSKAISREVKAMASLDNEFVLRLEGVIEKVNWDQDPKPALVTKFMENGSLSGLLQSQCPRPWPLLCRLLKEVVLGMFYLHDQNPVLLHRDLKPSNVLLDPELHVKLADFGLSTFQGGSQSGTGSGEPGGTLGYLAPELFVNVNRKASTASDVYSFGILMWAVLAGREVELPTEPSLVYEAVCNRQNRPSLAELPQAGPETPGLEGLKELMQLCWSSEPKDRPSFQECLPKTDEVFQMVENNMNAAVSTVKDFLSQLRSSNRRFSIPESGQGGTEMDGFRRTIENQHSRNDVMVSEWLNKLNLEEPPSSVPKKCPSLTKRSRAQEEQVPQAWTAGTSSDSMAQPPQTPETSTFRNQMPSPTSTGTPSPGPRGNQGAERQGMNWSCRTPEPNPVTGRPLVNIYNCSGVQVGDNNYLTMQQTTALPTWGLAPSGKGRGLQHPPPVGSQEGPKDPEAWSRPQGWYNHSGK
UniProt Q8K1M6: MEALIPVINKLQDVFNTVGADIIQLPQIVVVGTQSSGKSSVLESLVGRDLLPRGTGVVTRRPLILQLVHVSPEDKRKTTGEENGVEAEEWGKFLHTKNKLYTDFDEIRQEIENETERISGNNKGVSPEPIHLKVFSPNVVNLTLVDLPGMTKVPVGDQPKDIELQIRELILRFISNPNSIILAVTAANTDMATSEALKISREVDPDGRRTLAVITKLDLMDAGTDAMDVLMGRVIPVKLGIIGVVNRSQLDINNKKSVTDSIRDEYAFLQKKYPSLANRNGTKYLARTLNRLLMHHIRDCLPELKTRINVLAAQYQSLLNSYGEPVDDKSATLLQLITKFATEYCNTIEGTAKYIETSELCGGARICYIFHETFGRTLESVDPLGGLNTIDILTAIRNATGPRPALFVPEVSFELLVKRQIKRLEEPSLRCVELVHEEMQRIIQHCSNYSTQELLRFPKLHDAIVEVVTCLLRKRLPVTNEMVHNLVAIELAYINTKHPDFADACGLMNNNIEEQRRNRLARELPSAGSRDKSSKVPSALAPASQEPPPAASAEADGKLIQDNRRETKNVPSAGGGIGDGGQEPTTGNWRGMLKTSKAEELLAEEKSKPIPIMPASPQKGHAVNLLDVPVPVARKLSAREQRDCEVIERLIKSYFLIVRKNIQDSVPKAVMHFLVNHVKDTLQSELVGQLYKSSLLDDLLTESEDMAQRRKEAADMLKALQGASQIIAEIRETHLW
UniProt O00429: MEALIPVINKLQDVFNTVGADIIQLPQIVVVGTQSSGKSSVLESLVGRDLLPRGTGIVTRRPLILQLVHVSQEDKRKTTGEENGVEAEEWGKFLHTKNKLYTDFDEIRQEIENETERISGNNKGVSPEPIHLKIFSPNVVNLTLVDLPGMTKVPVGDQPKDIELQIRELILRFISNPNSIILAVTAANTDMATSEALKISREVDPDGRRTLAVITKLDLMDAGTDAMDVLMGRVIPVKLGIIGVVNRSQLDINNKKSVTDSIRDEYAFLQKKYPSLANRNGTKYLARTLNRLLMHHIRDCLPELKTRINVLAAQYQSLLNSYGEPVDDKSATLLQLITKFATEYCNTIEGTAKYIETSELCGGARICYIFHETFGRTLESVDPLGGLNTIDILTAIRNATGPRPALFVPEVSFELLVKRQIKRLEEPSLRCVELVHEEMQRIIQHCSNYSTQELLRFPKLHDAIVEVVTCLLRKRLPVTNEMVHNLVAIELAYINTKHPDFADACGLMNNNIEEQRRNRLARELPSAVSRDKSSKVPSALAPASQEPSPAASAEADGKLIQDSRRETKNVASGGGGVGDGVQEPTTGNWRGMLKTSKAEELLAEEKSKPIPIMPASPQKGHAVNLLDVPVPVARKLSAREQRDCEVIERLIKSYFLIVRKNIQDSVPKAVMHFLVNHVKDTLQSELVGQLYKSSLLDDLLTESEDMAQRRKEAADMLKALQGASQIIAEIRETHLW

T1: Retinoblastoma (RB) protein (human (endogenous in L02)) (UniProt P06400)
T1 sequence: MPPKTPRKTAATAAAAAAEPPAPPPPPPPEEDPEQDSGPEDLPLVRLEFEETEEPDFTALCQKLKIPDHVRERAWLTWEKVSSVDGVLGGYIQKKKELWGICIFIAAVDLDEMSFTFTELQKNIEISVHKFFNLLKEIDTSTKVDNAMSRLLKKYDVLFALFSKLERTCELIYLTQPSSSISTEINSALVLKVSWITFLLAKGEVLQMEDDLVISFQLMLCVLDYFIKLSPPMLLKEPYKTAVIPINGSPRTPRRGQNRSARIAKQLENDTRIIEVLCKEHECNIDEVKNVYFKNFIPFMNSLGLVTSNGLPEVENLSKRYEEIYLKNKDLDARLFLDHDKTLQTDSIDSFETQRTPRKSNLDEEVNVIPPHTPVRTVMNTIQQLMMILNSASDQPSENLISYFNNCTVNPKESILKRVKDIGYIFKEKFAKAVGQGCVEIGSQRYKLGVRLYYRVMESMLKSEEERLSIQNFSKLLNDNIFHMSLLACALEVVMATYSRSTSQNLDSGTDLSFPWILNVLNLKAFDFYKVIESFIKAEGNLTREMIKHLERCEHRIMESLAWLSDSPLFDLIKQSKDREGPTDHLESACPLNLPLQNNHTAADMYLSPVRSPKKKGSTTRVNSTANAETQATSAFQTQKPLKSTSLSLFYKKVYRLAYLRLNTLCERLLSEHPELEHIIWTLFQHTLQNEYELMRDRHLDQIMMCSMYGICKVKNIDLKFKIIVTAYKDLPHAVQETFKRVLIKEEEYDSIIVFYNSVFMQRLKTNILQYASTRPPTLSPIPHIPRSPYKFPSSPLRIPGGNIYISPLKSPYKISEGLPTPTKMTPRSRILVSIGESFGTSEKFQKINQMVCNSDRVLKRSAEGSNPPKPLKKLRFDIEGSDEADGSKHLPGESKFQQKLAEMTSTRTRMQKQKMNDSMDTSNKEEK

T2: mixed lineage kinase domain like (MLKL) protein (human (endogenous in L02)) (UniProt Q8NB16)
T2 sequence: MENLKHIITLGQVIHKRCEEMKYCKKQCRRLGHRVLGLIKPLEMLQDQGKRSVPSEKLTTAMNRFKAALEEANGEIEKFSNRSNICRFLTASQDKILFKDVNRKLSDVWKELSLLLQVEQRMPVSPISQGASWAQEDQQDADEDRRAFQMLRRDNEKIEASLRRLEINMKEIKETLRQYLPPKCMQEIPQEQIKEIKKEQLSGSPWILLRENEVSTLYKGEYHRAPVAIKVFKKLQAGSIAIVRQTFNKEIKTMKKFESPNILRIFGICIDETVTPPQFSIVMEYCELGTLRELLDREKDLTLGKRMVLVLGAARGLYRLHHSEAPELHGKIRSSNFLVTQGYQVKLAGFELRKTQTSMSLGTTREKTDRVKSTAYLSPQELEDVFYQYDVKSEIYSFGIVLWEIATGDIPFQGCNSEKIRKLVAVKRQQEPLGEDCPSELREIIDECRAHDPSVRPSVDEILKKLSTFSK


Tests used:
[1] = biological target: receptor interaction protein kinase 3 (RIPK3), mouse liver (mouse (endogenous in ICR mouse liver)) (UniProt Q9QZL0); assay: co-IP; mitochondrial fraction of liver of ICR mice (saline or CdCl2 1 mg/kg, 7 days) immunoprecipitated with anti-RIPK3 antibody on SureBeads, room temperature 1 h, washed in PBST; Western blot
[2] = biological target: T1, Retinoblastoma (RB) protein (human (endogenous in L02)); assay: co-IP; whole cell lysates (Nonidet P-40 lysis buffer) of L02 cells, control or CdCl2 20 uM 6 h, immunoprecipitated with anti-RB antibody on SureBeads, room temperature 1 h, washed in PBST; Western blot
[3] = biological target: receptor interaction protein kinase 3 (RIPK3) (human (endogenous in L02)) (UniProt Q9Y572); assay: co-IP; whole cell lysates (Nonidet P-40 lysis buffer) of L02 cells, control or CdCl2 20 uM 6 h, immunoprecipitated with anti-RIPK3 antibody on SureBeads, room temperature 1 h, washed in PBST; Western blot
[4] = biological target: T2, mixed lineage kinase domain like (MLKL) protein (human (endogenous in L02)); assay: proximity ligation; Duolink PLA on fixed, permeabilized L02 cells, control or treated with CdCl2; foci per cell counted
[5] = biological target: receptor interaction protein kinase 3 (RIPK3), mouse liver (mouse (endogenous in ICR mouse liver)) (UniProt Q9QZL0); assay: co-IP; mitochondrial fraction of liver of ICR mice (saline or CdCl2 1 mg/kg, 7 days) immunoprecipitated with anti-RIPK3 antibody on SureBeads, room temperature 1 h, washed in PBST; Western blot; remark: listed apart in the source

Row | Molecule | binding [2] | binding [5] | also measured
1 | Dynamin-related protein 1 (Drp1), mouse liver (from UniProt Q8K1M6 1-736) |  |  | binding [1]: binds
2 | Retinoblastoma (RB) protein (protein, UniProt P06400 1-928) MPPKTPRKTAATAAAAAAEPPAPPPPPPPEEDPEQDSGPEDLPLVRLEFEETEEPDFTALCQKLKIPDHVRERAWLTWEKVSSVDGVLGGYIQKKKELWGICIFIAAVDLDEMSFTFTELQKNIEISVHKFFNLLKEIDTSTKVDNAMSRLLKKYDVLFALFSKLERTCELIYLTQPSSSISTEINSALVLKVSWITFLLAKGEVLQMEDDLVISFQLMLCVLDYFIKLSPPMLLKEPYKTAVIPINGSPRTPRRGQNRSARIAKQLENDTRIIEVLCKEHECNIDEVKNVYFKNFIPFMNSLGLVTSNGLPEVENLSKRYEEIYLKNKDLDARLFLDHDKTLQTDSIDSFETQRTPRKSNLDEEVNVIPPHTPVRTVMNTIQQLMMILNSASDQPSENLISYFNNCTVNPKESILKRVKDIGYIFKEKFAKAVGQGCVEIGSQRYKLGVRLYYRVMESMLKSEEERLSIQNFSKLLNDNIFHMSLLACALEVVMATYSRSTSQNLDSGTDLSFPWILNVLNLKAFDFYKVIESFIKAEGNLTREMIKHLERCEHRIMESLAWLSDSPLFDLIKQSKDREGPTDHLESACPLNLPLQNNHTAADMYLSPVRSPKKKGSTTRVNSTANAETQATSAFQTQKPLKSTSLSLFYKKVYRLAYLRLNTLCERLLSEHPELEHIIWTLFQHTLQNEYELMRDRHLDQIMMCSMYGICKVKNIDLKFKIIVTAYKDLPHAVQETFKRVLIKEEEYDSIIVFYNSVFMQRLKTNILQYASTRPPTLSPIPHIPRSPYKFPSSPLRIPGGNIYISPLKSPYKISEGLPTPTKMTPRSRILVSIGESFGTSEKFQKINQMVCNSDRVLKRSAEGSNPPKPLKKLRFDIEGSDEADGSKHLPGESKFQQKLAEMTSTRTRMQKQKMNDSMDTSNKEEK |  |  | binding [3]: binds; binding [4]: binds
3 | Retinoblastoma (RB) protein, mouse liver (protein, UniProt P13405 1-921) MPPKAPRRAAAAEPPPPPPPPPREDDPAQDSGPEELPLARLEFEEIEEPEFIALCQKLKVPDHVRERAWLTWEKVSSVDGILEGYIQKKKELWGICIFIAAVDLDEMPFTFTELQKSIETSVYKFFDLLKEIDTSTKVDNAMSRLLKKYNVLCALYSKLERTCELIYLTQPSSALSTEINSMLVLKISWITFLLAKGEVLQMEDDLVISFQLMLCVVDYFIKFSPPALLREPYKTAAIPINGSPRTPRRGQNRSARIAKQLENDTRIIEVLCKEHECNIDEVKNVYFKNFIPFINSLGIVSSNGLPEVESLSKRYEEVYLKNKDLDARLFLDHDKTLQTDPIDSFETERTPRKNNPDEEANVVTPHTPVRTVMNTIQQLMVILNSASDQPSENLISYFNNCTVNPKENILKRVKDVGHIFKEKFANAVGQGCVDIGVQRYKLGVRLYYRVMESMLKSEEERLSIQNFSKLLNDNIFHMSLLACALEVVMATYSRSTLQHLDSGTDLSFPWILNVLNLKAFDFYKVIESFIKVEANLTREMIKHLERCEHRIMESLAWLSDSPLFDLIKQSKDGEGPDNLEPACPLSLPLQGNHTAADMYLSPLRSPKKRTSTTRVNSAANTETQAASAFHTQKPLKSTSLALFYKKVYRLAYLRLNTLCARLLSDHPELEHIIWTLFQHTLQNEYELMRDRHLDQIMMCSMYGICKVKNIDLKFKIIVTAYKDLPHAAQETFKRVLIREEEFDSIIVFYNSVFMQRLKTNILQYASTRPPTLSPIPHIPRSPYKFSSSPLRIPGGNIYISPLKSPYKISEGLPTPTKMTPRSRILVSIGESFGTSEKFQKINQMVCNSDRVLKRSAEGGNPPKPLKKLRFDIEGADEADGSKHLPAESKFQQKLAEMTSTRTRMQKQRMNESKDVSNKEEK |  | binds | 

More lines, main results first:

Row | binding [2] | binding [5] | Molecule | also measured
4 | binds |  | Dynamin-related protein 1 (Drp1) (from UniProt O00429 1-736) | 
5 | binds |  | receptor interaction protein kinase 3 (RIPK3) (from UniProt Q9Y572 1-518) | 
6 |  | binds | mixed lineage kinase domain like (MLKL) protein, mouse liver (protein, UniProt Q9D2Y4 1-472) MDKLGQIIKLGQLIYEQCEKMKYCRKQCQRLGNRVHGLLQPLQRLQAQGKKNLPDDITAALGRFDEVLKEANQQIEKFSKKSHIWKFVSVGNDKILFHEVNEKLRDVWEELLLLLQVYHWNTVSDVSQPASWQQEDRQDAEEDGNENMKVILMQLQISVEEINKTLKQCSLKPTQEIPQDLQIKEIPKEHLGPPWTKLKTSKMSTIYRGEYHRSPVTIKVFNNPQAESVGIVRFTFNDEIKTMKKFDSPNILRIFGICIDQTVKPPEFSIVMEYCELGTLRELLDREKDLTMSVRSLLVLRAARGLYRLHHSETLHRNISSSSFLVAGGYQVKLAGFELSKTQNSISRTAKSTKAERSSSTIYVSPERLKNPFCLYDIKAEIYSFGIVLWEIATGKIPFEGCDSKKIRELVAEDKKQEPVGQDCPELLREIINECRAHEPSQRPSVDGRSLSGRERILERLSAVEESTDKKV | 
